Experimental data reported in paper PMC11106335.
These are yes or no findings as the source states them, for the method shown. In cells and extracts the contact can be indirect. Some entries that bind do so weakly or less than the wild type.

Chains of the proteins cited; added tags and fusions are not shown.
UniProt Q14258: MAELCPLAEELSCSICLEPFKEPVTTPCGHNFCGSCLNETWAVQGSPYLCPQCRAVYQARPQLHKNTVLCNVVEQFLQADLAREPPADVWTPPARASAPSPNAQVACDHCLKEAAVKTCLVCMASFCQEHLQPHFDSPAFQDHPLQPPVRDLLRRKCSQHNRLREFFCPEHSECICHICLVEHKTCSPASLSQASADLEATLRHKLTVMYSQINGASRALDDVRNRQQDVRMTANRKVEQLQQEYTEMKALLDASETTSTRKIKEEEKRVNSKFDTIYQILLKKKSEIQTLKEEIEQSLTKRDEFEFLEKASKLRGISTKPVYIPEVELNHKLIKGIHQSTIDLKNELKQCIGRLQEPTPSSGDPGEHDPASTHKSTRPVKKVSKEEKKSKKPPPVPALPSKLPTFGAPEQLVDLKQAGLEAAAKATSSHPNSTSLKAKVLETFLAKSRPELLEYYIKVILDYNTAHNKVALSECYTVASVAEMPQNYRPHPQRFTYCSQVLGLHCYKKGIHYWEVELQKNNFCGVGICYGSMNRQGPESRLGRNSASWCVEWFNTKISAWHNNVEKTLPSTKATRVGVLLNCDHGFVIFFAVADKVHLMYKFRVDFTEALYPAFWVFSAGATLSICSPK
UniProt Q9UN79: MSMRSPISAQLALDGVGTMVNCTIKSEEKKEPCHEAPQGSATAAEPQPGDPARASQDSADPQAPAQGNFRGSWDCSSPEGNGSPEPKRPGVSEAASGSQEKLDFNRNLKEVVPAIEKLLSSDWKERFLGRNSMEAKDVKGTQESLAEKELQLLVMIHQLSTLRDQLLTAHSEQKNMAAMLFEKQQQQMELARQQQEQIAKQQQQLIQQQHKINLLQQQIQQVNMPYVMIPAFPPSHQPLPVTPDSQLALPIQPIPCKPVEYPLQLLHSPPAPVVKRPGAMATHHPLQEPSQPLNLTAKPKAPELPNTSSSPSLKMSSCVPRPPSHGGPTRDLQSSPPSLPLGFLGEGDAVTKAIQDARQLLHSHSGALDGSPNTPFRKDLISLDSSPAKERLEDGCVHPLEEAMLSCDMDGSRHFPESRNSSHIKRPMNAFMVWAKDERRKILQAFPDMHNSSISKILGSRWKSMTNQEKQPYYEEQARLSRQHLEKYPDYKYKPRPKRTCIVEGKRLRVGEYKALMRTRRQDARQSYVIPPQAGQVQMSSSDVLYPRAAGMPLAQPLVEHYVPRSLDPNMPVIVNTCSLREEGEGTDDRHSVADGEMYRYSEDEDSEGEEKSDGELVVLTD

How the values were obtained:
[1] = molecular target: endogenous TRIM25 (human (endogenous in gastric cancer cells, line not named for this experiment)) (UniProt Q14258); test: co-IP; endogenous proteins, cells in the presence or absence of zanamivir; cell supernatant incubated overnight with primary antibody at 4 °C, then 4 h with protein A/G Sepharose beads; Western blot
[2] = molecular target: TRIM25 (partner of exogenous SOX13 in the co-IP) (UniProt Q14258); test: co-IP; exogenous SOX13 expressed in cells; cell supernatant incubated overnight with primary antibody at 4 °C, then 4 h with protein A/G Sepharose beads; Western blot

| binding [1] | binding [2] | Substance |
| --- | --- | --- |
| binds | – | endogenous SOX13 (from UniProt Q9UN79 1-622) |
| – | binds | exogenous SOX13 (from UniProt Q9UN79 1-622) |
